PubChem BioAssay AID504784 | Drosophila RNAi Screening Center – 2011
Purpose: 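Fly genes whose silencing alters how much lipid cells keep in droplets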 (primary screen). Cells: Drosophila Kc167 embryonic cells. Reagents: long dsRNA against Drosophila genes, about 250 ng dsRNA per well. Time to read-out: 4 days. Treatment: cells fed 400 µM oleic acid bound to BSA. Measured: 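Cells imaged and segmented; ratio of lipid droplet area to nuclear area, log-transformed, then normalised as a B-score over the screen; higher means more stored lipid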. Reading the numbers: droplet/nuclear area B-score: higher = more stored lipid (overstorage).
The deposit covers about 17,000 reagents; shown is an unselected part of those with a known target gene and a result. 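Each column is one replicate's B-score; the combined score over replicates was not deposited, so single values may mislead.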 Names joined by + are all predicted targets of the reagent.

no.	gene	DRSC id	droplet/nuclear area B-score, replicate 1	droplet/nuclear area B-score, replicate 2	droplet/nuclear area B-score, replicate 3
1	CG15330	DRSC18014	-0.0226	-0.654	
2	CG10474	DRSC05993	1.36	0.00623	
3	ena	DRSC05779	-0.648	0.74	
4	ena	DRSC07610	1.31	-0.212	
5	C901	DRSC19351	-0.115	0.126	1.05
6	CG15919	DRSC06594	0.649	0.868	
7	CG8677	DRSC03107	0.391	0.0832	
8	CG1896	DRSC15397	-0.387		
9	CG7747	DRSC07038	0.242	0.415	
10	ac	DRSC18734	1.92	0.767	
11	CG7140	DRSC11799	1.41	0.65	
12	CG13841	DRSC14691	0.741	-0.0634	
13	Ugt37C1	DRSC07416	-0.769	-0.0401	
14	sphinx1	DRSC10993	-0.737	-1.14	
15	Rpt2	DRSC16799	-0.784	-0.523	
16	Ir51a	DRSC06256	0.85	-0.0281	
17	CG14696	DRSC14919	0.204	0.704	
18	Gbeta5	DRSC17754	0.283	-0.613	
19	CG8366	DRSC07153	-2.61	-1.33	
20	GstD5	DRSC16686	0.197	-0.118	
21	Dhc36C	DRSC03315	-0.236	-0.865	
22	Adh + Adhr	DRSC01862	1.16	0.438	
23	Adh + Adhr	DRSC01863	0.835	0.654	
24	CG13028	DRSC09908	-0.234	-1.2	
25	CG6567 + CG42394	DRSC22241	0.911	0.404	
26	ptc	DRSC05117	-0.00715	0.724	
27	ptc	DRSC07669	-2.71	-0.371	
28	Pex10	DRSC08599	0.194	-0.493	3.39
29	Pex10	DRSC22021	-0.844	0.153	
30	CG10681	DRSC09777	-3.7	-0.551	
31	CG10681	DRSC21484	-0.279	-0.608	
32	AIMP1	DRSC07118	1.43	-1.78	
33	CG9628	DRSC11082	-0.097	-0.835	0.917
34	ear	DRSC15675	1.05		

Part of the list above, reduced to “droplet/nuclear area B-score, replicate 2”:
CG15919 [DRSC06594]: 0.868
CG8677 [DRSC03107]: 0.0832
